This note sets out measurements from US20080210905A1, “ORGANIC-ELECTROLUMINESCENCE-MATERIAL-CONTAINING SOLUTION, METHOD FOR SYNTHESIZING ORGANIC ELECTROLUMINESCENCE MATERIAL, COMPOUND SYNTHESIZED BY THE METHOD, METHOD FOR FORMING THIN FILM OF ORGANIC ELECTROLUMINESCENCE MATERIAL, THIN FILM OF ORGANIC ELECTROLUMINESCENCE MATERIAL AND ORGANIC …” (Idemitsu Kosan Co., Ltd., priority 2006, published 2008).

This data set in a line: Organic electroluminescence device with spin-coated emitting layer (host and BD-1).

Regarding `c1ccc(-c2ccccc2-c2ccc3c(-c4ccccc4)c4ccccc4c(-c4ccccc4)c3c2)cc1` [compound (a)], the luminescence efficiency (device with compound as host of emitting layer, host:BD-1 20:1 (wt/wt), 50 nm, blue emission) came out at 4.1 cd/A. The “time elapsed until the luminescent intensity decreased to half” value (initial luminescence intensity 1000 cd/m^2, compound as host with BD-1) is 460 h.
